Measurements reported in PMC11809919, “Quinoxaline-based anti-schistosomal compounds have potent anti-plasmodial activity” (PLOS Pathogens, 2025).
Some ranges recur; such a range may be that of the whole group of compounds.

Key:
Assay type in all cases: cell-based, Plasmodium falciparum
Dd2 parental parasites = experiment: Minimum inoculum for resistance (MIR), Dd2 parental; conditions: for Recrudescent day: Dd2 wildtype, day parasitemia crossed 1%
Dd2-Polδ mutator line [1] = experiment: In vitro drug resistance selections using Dd2-Polδ; conditions: for Flasks with recovered parasites: triplicate flasks, 1×10^8 parasites, 5×IC50; for Ramping selections: initially 1×IC50, increasing concentrations
Dd2-Polδ mutator line [2] = experiment: Minimum inoculum for resistance (MIR), Dd2-Polδ
[3] = 5×IC50, inoculum 10^8 parasites
[4] = 5×IC50, inoculum 10^8 parasites, after drug removal
[5] = 5×IC50, inoculum 10^9 parasites

## O=[N+]([O-])c1ccc2nc(Nc3ccc(Cl)c(Cl)c3)c(Nc3ccc(Cl)c(Cl)c3)nc2c1 [Compound 22]
Dd2 parental parasites; Dd2, inoculum 10^4 – 10^8
  Recrudescence: no recrudescence
Dd2 parental parasites; Dd2 and Dd2-Polδ, triplicate cultures, 10^4 – 10^8 per culture
  Minimum inoculum for resistance (MIR): > 3×10^8 parasites
Dd2-Polδ mutator line [1]; [3]
  Parasite below detection limit: 8 to 10 days
Dd2-Polδ mutator line [1]; [4]
  Recrudescence: approximately 3 weeks
Dd2-Polδ mutator line [1]; 5×IC50, inoculum 10^8 parasites, after drug removal, listed as C22
  Recrudescence: 3 weeks
Dd2-Polδ mutator line [1]
  Flasks with recovered parasites: two of the triplicate flasks
Dd2-Polδ mutator line [2]; inoculum 10^4 – 10^8
  Recrudescence: no recrudescence

## O=[N+]([O-])c1ccc2nc(Nc3ccc(C(F)(F)F)cc3)c(Nc3ccc(C(F)(F)F)cc3)nc2c1 [Compound 31]
Dd2-Polδ mutator line [1]; [3]
  Parasite below detection limit: 8 to 10 days
Dd2-Polδ mutator line [1]; [4]
  Recrudescence: approximately 3 weeks
Dd2-Polδ mutator line [1]; 5×IC50, inoculum 10^8 parasites, after drug removal, listed as C31
  Recrudescence: 3 weeks
Dd2-Polδ mutator line [1]; [5]
  Parasite below detection limit: 8 to 10 days
  Recrudescence: no recrudescent parasites were recovered
Dd2-Polδ mutator line [1]; 5×IC50, inoculum 10^9 parasites, listed as C31
  Recrudescence: no recrudescence
Dd2-Polδ mutator line [1]
  Ramping selections: no resistance
  Flasks with recovered parasites: two of the triplicate flasks

## O=[N+]([O-])c1ccc2nc(Nc3cc(C(F)(F)F)ccc3F)c(Nc3cc(C(F)(F)F)ccc3F)nc2c1 [Compound 33]
Dd2-Polδ mutator line [1]; [3]
  Parasite below detection limit: 8 to 10 days
Dd2-Polδ mutator line [1]; [4]
  Recrudescence: did not recover even after 60 days
Dd2-Polδ mutator line [1]; 5×IC50, inoculum 10^8 parasites, after drug removal, listed as C33
  Recrudescence: no recrudescence
Dd2-Polδ mutator line [1]; [5]
  Parasite below detection limit: 8 to 10 days
  Recrudescence: no recrudescent parasites were recovered
Dd2-Polδ mutator line [1]; 5×IC50, inoculum 10^9 parasites, listed as C33
  Recrudescence: no recrudescence
Dd2-Polδ mutator line [1]
  Ramping selections: no resistance

## CC1(C)c2nc(-c3ccc(F)cc3)c(Nc3ccc(Cl)cc3)n2CCN1C(=O)CN [GNF179]
Dd2 parental parasites; Dd2, inoculum 10^7 and 10^8, 3×IC50
  Recrudescent cultures: 3/3
Dd2 parental parasites; inoculum 10^7
  Recrudescent day: 26-42
Dd2 parental parasites; inoculum 10^8
  Recrudescent day: 26-32
Dd2-Polδ mutator line [2]; inoculum 10^6, 3×IC50
  Recrudescent cultures: 2 of 3
Dd2-Polδ mutator line [2]; inoculum 10^6, day parasitemia crossed 1%
  Recrudescent day: 35
Dd2-Polδ mutator line [2]; inoculum 10^7, day parasitemia crossed 1%
  Recrudescent day: 16
Dd2-Polδ mutator line [2]; inoculum 10^8, day parasitemia crossed 1%
  Recrudescent day: 26
